Drawing on paper doi:10.1101/2023.10.05.561144, this text covers binding for 1 molecule.

In the test the target is T1, biotin ligase-conjugated casp3 (AdBioCasp3), adenoviral construct (UniProt P42574).
T1 sequence: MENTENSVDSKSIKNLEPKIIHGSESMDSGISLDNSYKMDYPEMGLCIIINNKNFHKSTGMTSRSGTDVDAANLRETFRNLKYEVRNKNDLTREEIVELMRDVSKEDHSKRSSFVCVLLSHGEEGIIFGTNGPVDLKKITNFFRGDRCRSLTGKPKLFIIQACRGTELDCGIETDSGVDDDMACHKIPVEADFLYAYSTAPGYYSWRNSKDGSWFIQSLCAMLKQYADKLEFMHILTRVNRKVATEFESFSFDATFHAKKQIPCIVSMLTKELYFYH
Kind of test: proximity labelling.

Results are given in words; binding and its absence hold for the method and conditions named. In cells and extracts the contact can be indirect. A yes stands for co-enrichment or nearness to the bait. Other partners may have been found.

B1: AQP1, endogenous in rat PASMCs (protein, UniProt P29975 1-269)
chain: MASEIKKKLFWRAVVAEFLAMTLFVFISIGSALGFNYPLERNQTLVQDNVKVSLAFGLSIATLAQSVGHISGAHLNPAVTLGLLLSCQISILRAVMYIIAQCVGAIVASAILSGITSSLLENSLGRNDLARGVNSGQGLGIEIIGTLQLVLCVLATTDRRRRDLGGSAPLAIGLSVALGHLLAIDYTGCGINPARSFGSAVLTRNFSNHWIFWVGPFIGSALAVLIYDFILAPRSSDFTDRMKVWTSGQVEEYDLDADDINSRVEMKPK
Consider B1, for which the binding result is given as “binds”.
